According to patent US20170158745A1, “IDR PEPTIDE COMPOSITIONS AND USE THEREOF FOR TREATMENT OF TH2-DYSREGULATED INFLAMMATORY CONDITIONS” (University of Manitoba, priority 2013, published 2017):
“Also recorded” adds a separate entry of the source. Part of at least one peptide drawing is inferred or uncertain, most often the ends. Residues, ends and D or L forms follow the SMILES beside them.

Columns and labels:
Type in all cases: in vivo, mouse (Balb/c)
IL-13 = IL-13 by ELISA in lung tissue of HDM-challenged mice; details: acute (2 week) HDM model, s.c. 6 mg/Kg, FIG. 5
neutrophils = test: Neutrophil numbers in BALF of HDM-challenged mice (modified Wright-Giemsa staining); details: acute (2-week) HDM model, s.c. 6 mg/Kg, FIG. 7A
HDM-specific IgE = HDM-specific IgE by ELISA in serum of HDM-challenged mice; details: s.c. 6 mg/Kg
IL-33 = IL-33 by ELISA in lung tissue of HDM-challenged mice; details: for IL-33 in lung tissue: acute HDM model, FIG. 4
HDM-challenged mice = test: Lung function (flexiVent, inhaled methacholine) in HDM-challenged murine model of allergic asthma

## CC[C@H](C)[C@H](NC(=O)[C@H](CCCNC(=N)N)NC(=O)[C@H](Cc1c[nH]c2ccccc12)NC(=O)[C@@H](NC(=O)[C@@H](NC(=O)[C@H](CC(C)C)NC(=O)[C@H](Cc1c[nH]c2ccccc12)NC(=O)[C@H](CCCNC(=N)N)NC(=O)[C@H](CCC(N)=O)NC(=O)[C@@H](N)C(C)C)[C@@H](C)CC)C(C)C)C(=O)N[C@@H](CCCNC(=N)N)C(=O)N[C@@H](CCCCN)C(N)=O [IDR 1002, VQRWLIVWRIRK-NH2] (H-VQRWLIVWRIRK-NH2)
IL-13
  IL-13 levels in lung tissue: notably reduced
neutrophils
  infiltration of neutrophils (BALF): significantly decreased
HDM-specific IgE; 2 week acute HDM model, FIG. 6A, p<0.05
  HDM-specific IgE in serum: significantly reduced
HDM-specific IgE; 5 week chronic HDM model, FIG. 6B
  HDM-specific IgE in serum: notable reduction
IL-33; acute (2-week) HDM model, s.c. 6 mg/Kg, FIG. 7B
  production of inflammatory cytokine IL-33 in lung tissue: significantly decreased
IL-33; i.n. 0.5 mg/Kg
  IL-33 in lung tissue: suppressed
IL-33; s.c. 6 mg/Kg
  IL-33 in lung tissue: but not s.c.
HDM-challenged mice; acute (2 week) HDM model, i.n. 0.5 mg/kg, FIG. 2A, p<0.05
  airway resistance: significantly reduced
HDM-challenged mice; acute (2 week) HDM model, s.c. 6 mg/kg, FIG. 2B, p<0.05
  airway resistance: significantly reduced
HDM-challenged mice; acute HDM model, i.n. 0.5 mg/kg, FIG. 2C, p<0.05
  tissue resistance: significantly reduced
HDM-challenged mice; acute HDM model, s.c. 6 mg/kg, FIG. 2D
  tissue resistance: but not during s.c.
HDM-challenged mice; chronic (5 week) HDM model, s.c. 6 mg/kg, FIG. 3A, 6 mg/kg
  airway resistance: significantly reduced; also recorded: significantly improve
HDM-challenged mice; chronic (5 week) HDM model, s.c. 6 mg/kg, FIG. 3B
  tissue resistance: significantly improve
HDM-challenged mice; chronic (5 week) HDM model, s.c. 6 mg/kg, FIG. 3C
  tissue elastance: significantly improve
